Patent US20130064788A1 (ELEVEN BIOTHERAPEUTICS, published 2013)
No constants are given. Whether binding was seen depends on the method and setting. Some binding calls cover weakened binding; strength is not graded here.

By UniProt entry, the sequences of proteins in these tests, tags left out. Where a name states a change or a piece, a line headed by the entry shows the natural chain unless it says otherwise.
UniProt Q96F46: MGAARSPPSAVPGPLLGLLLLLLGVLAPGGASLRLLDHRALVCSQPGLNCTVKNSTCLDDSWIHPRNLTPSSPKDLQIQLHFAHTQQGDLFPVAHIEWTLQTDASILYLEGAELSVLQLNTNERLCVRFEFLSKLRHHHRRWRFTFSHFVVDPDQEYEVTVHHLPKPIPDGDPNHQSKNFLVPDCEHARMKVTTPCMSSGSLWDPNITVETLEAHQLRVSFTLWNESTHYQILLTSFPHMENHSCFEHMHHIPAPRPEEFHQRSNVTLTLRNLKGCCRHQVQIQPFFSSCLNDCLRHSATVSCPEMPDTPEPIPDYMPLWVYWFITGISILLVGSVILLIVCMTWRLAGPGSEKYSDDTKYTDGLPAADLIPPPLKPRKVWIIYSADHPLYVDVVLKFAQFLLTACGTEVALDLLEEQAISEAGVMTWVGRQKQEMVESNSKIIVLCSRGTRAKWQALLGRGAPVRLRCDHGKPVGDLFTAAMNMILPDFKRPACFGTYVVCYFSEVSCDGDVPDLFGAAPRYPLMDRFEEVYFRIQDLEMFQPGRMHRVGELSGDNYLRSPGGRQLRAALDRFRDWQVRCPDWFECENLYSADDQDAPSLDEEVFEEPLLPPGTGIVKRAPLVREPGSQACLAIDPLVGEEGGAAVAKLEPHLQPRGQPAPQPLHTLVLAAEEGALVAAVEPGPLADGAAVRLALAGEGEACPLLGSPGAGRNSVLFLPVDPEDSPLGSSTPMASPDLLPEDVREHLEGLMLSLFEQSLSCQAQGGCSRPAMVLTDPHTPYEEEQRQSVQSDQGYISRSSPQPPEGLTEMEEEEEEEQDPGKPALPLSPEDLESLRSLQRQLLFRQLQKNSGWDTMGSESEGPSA

Columns and labels:
[1] = molecular target: T1, pre-assembled IL-17RB-IL-25 complex (IL-25 captured by immobilised IL-17RB) (human) (UniProt Q9NRM6); assay: SPR
T1 sequence (chain, C-terminal biotin on BirA tag) 1: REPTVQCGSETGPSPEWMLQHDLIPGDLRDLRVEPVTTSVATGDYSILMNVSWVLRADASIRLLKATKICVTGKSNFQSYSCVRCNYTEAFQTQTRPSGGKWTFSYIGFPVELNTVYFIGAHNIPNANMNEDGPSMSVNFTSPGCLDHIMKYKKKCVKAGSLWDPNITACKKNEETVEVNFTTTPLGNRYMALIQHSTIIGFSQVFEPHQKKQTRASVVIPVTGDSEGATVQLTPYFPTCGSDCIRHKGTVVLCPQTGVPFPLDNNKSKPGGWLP
T1 sequence (chain, C-terminal biotin on BirA tag) 2: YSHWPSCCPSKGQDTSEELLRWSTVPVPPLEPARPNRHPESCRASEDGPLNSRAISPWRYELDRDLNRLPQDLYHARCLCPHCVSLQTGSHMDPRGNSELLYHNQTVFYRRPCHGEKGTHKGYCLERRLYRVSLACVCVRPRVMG

[2] = molecular target: T2, pre-assembled IL-17RC-IL-17F complex (IL-17F captured by immobilised IL-17RC) (human) (UniProt Q8NAC3); assay: SPR; second receptor injected over IL-17F captured by immobilised IL-17RC
T2 sequence (chain, C-terminal biotin on BirA tag) 1: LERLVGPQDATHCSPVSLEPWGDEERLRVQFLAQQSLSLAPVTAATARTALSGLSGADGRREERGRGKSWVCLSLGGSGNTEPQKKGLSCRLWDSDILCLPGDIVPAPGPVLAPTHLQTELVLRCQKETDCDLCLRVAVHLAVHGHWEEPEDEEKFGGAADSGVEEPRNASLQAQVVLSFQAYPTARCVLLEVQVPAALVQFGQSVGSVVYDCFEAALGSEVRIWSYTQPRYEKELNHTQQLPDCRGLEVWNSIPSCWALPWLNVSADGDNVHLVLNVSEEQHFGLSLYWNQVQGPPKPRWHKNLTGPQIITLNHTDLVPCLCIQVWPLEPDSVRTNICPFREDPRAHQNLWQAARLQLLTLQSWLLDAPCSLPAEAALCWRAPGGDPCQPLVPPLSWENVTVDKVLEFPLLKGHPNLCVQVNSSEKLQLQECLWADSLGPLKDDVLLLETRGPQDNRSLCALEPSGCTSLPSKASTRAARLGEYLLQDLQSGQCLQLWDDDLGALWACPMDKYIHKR
T2 sequence (chain, C-terminal biotin on BirA tag) 2: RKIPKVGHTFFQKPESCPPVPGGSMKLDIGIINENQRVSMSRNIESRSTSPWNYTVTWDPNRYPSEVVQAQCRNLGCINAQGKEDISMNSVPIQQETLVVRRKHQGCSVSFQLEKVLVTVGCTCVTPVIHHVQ

[3] = molecular target: T2, pre-assembled IL-17RC-IL-17F complex (IL-17F captured by immobilised IL-17RC) (human); assay: SPR (Biacore T100), equilibrium analysis; IL-17F captured on immobilised biotinylated IL-17RC, soluble IL-17RC injected as second receptor
[4] = molecular target: T3, IL-17RB extracellular domain (human) (UniProt Q9NRM6); assay: SPR; cytokine captured by immobilised receptor
T3 sequence: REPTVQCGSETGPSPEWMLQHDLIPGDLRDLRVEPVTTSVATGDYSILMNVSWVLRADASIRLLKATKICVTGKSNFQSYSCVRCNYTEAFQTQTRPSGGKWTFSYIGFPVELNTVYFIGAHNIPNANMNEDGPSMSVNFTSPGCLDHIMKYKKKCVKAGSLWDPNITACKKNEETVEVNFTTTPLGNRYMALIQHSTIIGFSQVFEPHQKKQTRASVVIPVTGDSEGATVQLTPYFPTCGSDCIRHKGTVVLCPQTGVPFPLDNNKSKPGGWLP

human IL-17RA extracellular domain (ECD) (from UniProt Q96F46 32-317) (receptor)
binding [1]: binds

B1: IL-17RC extracellular domain (receptor)
chain: LERLVGPQDATHCSPVSLEPWGDEERLRVQFLAQQSLSLAPVTAATARTALSGLSGADGRREERGRGKSWVCLSLGGSGNTEPQKKGLSCRLWDSDILCLPGDIVPAPGPVLAPTHLQTELVLRCQKETDCDLCLRVAVHLAVHGHWEEPEDEEKFGGAADSGVEEPRNASLQAQVVLSFQAYPTARCVLLEVQVPAALVQFGQSVGSVVYDCFEAALGSEVRIWSYTQPRYEKELNHTQQLPDCRGLEVWNSIPSCWALPWLNVSADGDNVHLVLNVSEEQHFGLSLYWNQVQGPPKPRWHKNLTGPQIITLNHTDLVPCLCIQVWPLEPDSVRTNICPFREDPRAHQNLWQAARLQLLTLQSWLLDAPCSLPAEAALCWRAPGGDPCQPLVPPLSWENVTVDKVLEFPLLKGHPNLCVQVNSSEKLQLQECLWADSLGPLKDDVLLLETRGPQDNRSLCALEPSGCTSLPSKASTRAARLGEYLLQDLQSGQCLQLWDDDLGALWACPMDKYIHKR
notes: Expressed in 293S GnTI- cells with and without a C-terminal BirA tag; An additional C-terminal Fc tag was cleaved by 3C protease
binding [2]: binds | binding [3]: binds

B2: IL-25 (IL-17E) (ligand)
chain: YSHWPSCCPSKGQDTSEELLRWSTVPVPPLEPARPNRHPESCRASEDGPLNSRAISPWRYELDRDLNRLPQDLYHARCLCPHCVSLQTGSHMDPRGNSELLYHNQTVFYRRPCHGEKGTHKGYCLERRLYRVSLACVCVRPRVMG
notes: Expressed by High Five cells with a C-terminal hexa-His tag; It is treated as a dimeric cytokine in the SPR scheme; not shown: C-terminal hexa-His tag
binding [4]: binds
